In this assay the test system is L1210 leukemia ip in BDF1 mice, survival T/C. The experiment in a line: NCI In Vivo Anticancer Drug Screen. Data for tumor model L1210 Leukemia (intraperitoneal) in B6D2F1 (BDF1) mice. As to conditions: T/C endpoint: mean survival time, higher T/C = longer survival.
[1] abbreviates: dose: 100.0 mg/kg/injection, schedule: Q04DX002 (ip), vehicle: Klucel (hydroxypropylcellulose) (HPC).
Setting [2] is: dose: 200.0 mg/kg/injection, schedule: Q04DX002 (ip), vehicle: Klucel (hydroxypropylcellulose) (HPC).
Where [3] appears, read: dose: 400.0 mg/kg/injection, schedule: Q04DX002 (ip), vehicle: Klucel (hydroxypropylcellulose) (HPC).
[4] abbreviates: dose: 400.0 mg/kg/injection, schedule: Q01DX001 (ip), vehicle: saline.
[5] abbreviates: dose: 50.0 mg/kg/injection, schedule: Q01DX009 (ip), vehicle: saline.
[6] abbreviates: dose: 100.0 mg/kg/injection, schedule: Q01DX009 (ip), vehicle: Klucel (hydroxypropylcellulose) (HPC).
Where [7] appears, read: dose: 200.0 mg/kg/injection, schedule: Q01DX009 (ip), vehicle: Klucel (hydroxypropylcellulose) (HPC).
Setting [8] is: dose: 400.0 mg/kg/injection, schedule: Q04DX003 (ip), vehicle: saline with Tween-80.

The list is a part of this screen's results and no random one: it gathers tests that were run many times, whatever their T/C, doses with no T/C, and many T/C values between a quarter and a half above the control. Further doses and runs are listed elsewhere. T/C: endpoint of the treated group in % of that of the vehicle group. Some doses have a count of surviving animals in place of a T/C: the source files T/C as zero there, which appears to mark a toxic dose or a test without result, not a measured value. Some survivor counts are full or nearly so, which does not show that the dose was tolerated: the source hardly ever lists a survival T/C far under the control, and the zero likely stands for such cases as well. Counts of survivors are from the toxicity check (mostly the fifth day) where no day follows; animals may have died later. Schedules are NCI's codes, taken here to give the interval after Q, in days (D) or hours (H), and the number of doses after X. Some doses were run more than once; the results are listed from low to high. Some schedule codes hold Z or #, which are not explained here. For survival time, this PubChem deposit counts one and a half times the control or more as active, and values a quarter to a half above the control carry no call in these data; other NCI protocols may use other cut-offs. Some T/C values carry the count of animals alive at the toxicity check (mostly the fifth day); where none is given, no animal had died by that day.

As to `Cc1cc(OC(=O)Nc2ccc(Cl)cc2Cl)c(C)cc1Cl`, the survivor count was 2 of 3 (dose: 50.0 mg/kg/injection, schedule: Q01DX009 (ip), vehicle: saline with Tween-80) and 3 of 3 (dose: 200.0 mg/kg/injection, schedule: Q01DX009 (ip), vehicle: saline with Tween-80).

As to `C[CH2][Pb]([CH2]C)([CH2]C)[N]1C(=O)c2c(Cl)c(Cl)c(Cl)c(Cl)c2C1=O`, the survivor count reads like this: (dose: 25.0 mg/kg/injection, schedule: Q04DX002 (ip), vehicle: Klucel (hydroxypropylcellulose) (HPC)) 2 of 3; (dose: 50.0 mg/kg/injection, schedule: Q04DX002 (ip), vehicle: Klucel (hydroxypropylcellulose) (HPC)) 0 of 3; under setting [1], 0 of 3; under setting [2], 0 of 3; under setting [3], 0 of 3.

As for `O=c1[nH]c2cc(Cl)ccc2c(CCl)c1Cl`, the survivor count (dose: 150.0 mg/kg/injection, schedule: Q01DX009 (ip), vehicle: saline with Tween-80) was 3 of 6; the survivor count (dose: 200.0 mg/kg/injection, schedule: Q04DX003 (ip), vehicle: acetone) is recorded as 3 of 6; the survivor count (dose: 225.0 mg/kg/injection, schedule: Q01DX009 (ip), vehicle: saline with Tween-80) was 4 of 6; the survivor count (dose: 335.0 mg/kg/injection, schedule: Q01DX009 (ip), vehicle: saline with Tween-80) was 0 of 6; the survivor count (dose: 400.0 mg/kg/injection, schedule: Q04DX003 (ip), vehicle: acetone) was 0 of 6.

`CN(N=O)C(=O)NCCC#N`: the survivor count (dose: 200.0 mg/kg/injection, schedule: Q01DX Z (ip), vehicle: carboxymethylcellulose (CMC)) is given as 3 of 6; the survivor count (dose: 250.0 mg/kg/injection, schedule: Q01DX Z (ip), vehicle: carboxymethylcellulose (CMC)) was 0 of 6; the survivor count (dose: 300.0 mg/kg/injection, schedule: Q01DX Z (ip), vehicle: carboxymethylcellulose (CMC)) was 0 of 6.

As to `[N-]=[N+]=NC1=NN2NNN=C2C(N)=C1`, the survivor count under setting [4] is listed as 2 of 4.

For the compound `CN(C1=CC(=O)C(N(C)C2CCCCC2)=CC1=O)C1CCCCC1`, the survivor count (dose: 30.0 mg/kg/injection, schedule: Q01DX009 (ip), vehicle: saline) is listed as 4 of 6.

Take `Cc1cc(C(=O)NC(CCC(=O)O)C(=O)O)cc(C)c1N(C)Cc1cnc2nc(N)nc(N)c2n1` (stereo not drawn): the T/C was 143 % of control (dose: 6.25 mg/kg/injection, schedule: Q01DX009 (ip), vehicle: saline); 126 % of control (dose: 6.25 mg/kg/injection, schedule: Q01DX009 (ip), vehicle: sodium bicarbonate); 146 % of control [9 of 10 alive] (dose: 12.5 mg/kg/injection, schedule: Q01DX009 (ip), vehicle: sodium bicarbonate); 125 % of control (dose: 25.0 mg/kg/injection, schedule: Q01DX009 (ip), vehicle: saline); 136 % of control (dose: 25.0 mg/kg/injection, schedule: Q01DX009 (ip), vehicle: sodium bicarbonate). Moreover, the survivor count under setting [5] is reported as 5 of 6.

In the case of `ClCC1=NCCN1`, the survivor count runs as follows: under setting [1], 3 of 3; under setting [2], 0 of 3; under setting [3], 0 of 3.

In the case of `ClCC1CC2C=CC1C2` (stereo not drawn), the survivor count runs as follows: under setting [6], 1 of 6; (dose: 100.0 mg/kg/injection, schedule: Q04DX002 (ip), vehicle: saline with Tween-80) 0 of 3 and 1 of 4; under setting [7], 0 of 6; (dose: 200.0 mg/kg/injection, schedule: Q04DX002 (ip), vehicle: saline with Tween-80) 0 of 3; (dose: 400.0 mg/kg/injection, schedule: Q04DX002 (ip), vehicle: saline with Tween-80) 0 of 3.

In the case of `CC(=O)[O][Hg][c]1cc[c]([Hg][O]C(C)=O)s1`, the survivor count reads like this: (dose: 12.0 mg/kg/injection, schedule: Q01DX009 (ip), vehicle: Klucel (hydroxypropylcellulose) (HPC)) 6 of 6; (dose: 25.0 mg/kg/injection, schedule: Q04DX003 (ip), vehicle: Klucel (hydroxypropylcellulose) (HPC)) 3 of 6; (dose: 50.0 mg/kg/injection, schedule: Q04DX003 (ip), vehicle: Klucel (hydroxypropylcellulose) (HPC)) 1 of 6; (dose: 100.0 mg/kg/injection, schedule: Q04DX003 (ip), vehicle: Klucel (hydroxypropylcellulose) (HPC)) 0 of 6; (dose: 200.0 mg/kg/injection, schedule: Q04DX003 (ip), vehicle: Klucel (hydroxypropylcellulose) (HPC)) 0 of 6; (dose: 400.0 mg/kg/injection, schedule: Q04DX003 (ip), vehicle: Klucel (hydroxypropylcellulose) (HPC)) 2 of 6.

`Cc1ncc(CO)c(C)c1O`: under “dose: 0.1 mg/kg/injection, schedule: Q02DX010 (ip), vehicle: saline”, the T/C is 125 % of control. Also, the survivor count runs as follows: under setting [4], 0 of 6; (dose: 400.0 mg/kg/injection, schedule: Q01DX009 (ip), vehicle: saline) 0 of 6; (dose: 800.0 mg/kg/injection, schedule: Q01DX001 (ip), vehicle: saline) 0 of 6; (dose: 800.0 mg/kg/injection, schedule: Q01DX009 (ip), vehicle: saline) 0 of 6; (dose: 1200.0 mg/kg/injection, schedule: Q01DX001 (ip), vehicle: saline) 0 of 6; (dose: 1600.0 mg/kg/injection, schedule: Q01DX001 (ip), vehicle: saline) 0 of 6.

Turning to `CC(=O)C(C(C)=O)c1ccccc1.CC(=O)C(C(C)=O)c1ccccc1.[Ni]`, the survivor count under setting [5] is 0 of 6; the survivor count (dose: 75.0 mg/kg/injection, schedule: Q01DX009 (ip), vehicle: saline) is 0 of 6; the survivor count (dose: 150.0 mg/kg/injection, schedule: Q01DX009 (ip), vehicle: saline) is recorded as 0 of 6.

For the compound `O=C1c2cccc3cc([N+](=O)[O-])cc(c23)C(=O)N1CCCN(CCO)CCO`, the survivor count is on record as 3 of 6 under setting [6]; 2 of 6 under setting [7]; 0 of 6 (dose: 400.0 mg/kg/injection, schedule: Q01DX009 (ip), vehicle: Klucel (hydroxypropylcellulose) (HPC)).

`CSc1nncc(-c2cnnc(SC)n2)n1`: under setting [3], the survivor count is 1 of 3.

As for `CSc1nnc(N)s1`, the T/C under setting [3] was 146 % of control.

As for `CCCCCCCCCCCCCCCC(=O)N(CCCCN(CCCN(C)C)C(=O)CCCCCCCCCCCCCCC)CCCN(C)C`, the survivor count (dose: 200.0 mg/kg/injection, schedule: Q04DX003 (ip), vehicle: saline with Tween-80) is 0 of 6 and the survivor count under setting [8] is listed as 0 of 6.

In the case of `CN(C)N1CCC2(CCC(C(C)(C)C)CC2)CC1`, the survivor count is, setting by setting: (dose: 200.0 mg/kg/injection, schedule: Q01DX001 (ip), vehicle: carboxymethylcellulose (CMC)) 0 of 4; (dose: 400.0 mg/kg/injection, schedule: Q01DX001 (ip), vehicle: carboxymethylcellulose (CMC)) 0 of 4.

Regarding `COc1ccc(CC[n+]2cccc(C#N)c2)cc1OC`, the survivor count (dose: 300.0 mg/kg/injection, schedule: Q01DX001 (ip), vehicle: carboxymethylcellulose (CMC)) is listed as 3 of 6.

With `CCOC(=O)C(c1ccccc1)N(c1ccccc1)S(=O)(=O)c1ccc(C)cc1` (stereo not drawn), for the setting “dose: 50.0 mg/kg/injection, schedule: Q01DX001 (ip), vehicle: other”, the survivor count was 0 of 4.

In the case of `CC(C)(CO)CO`, the survivor count by setting is: (dose: 200.0 mg/kg/injection, schedule: Q04DX002 (ip), vehicle: saline) 0 of 3; (dose: 400.0 mg/kg/injection, schedule: Q04DX002 (ip), vehicle: saline) 0 of 3.

As for `CCC(C(=O)O)N1C(=O)C2C3C=CC(C3)C2C1=O` (stereo not drawn), the survivor count under setting [8] is recorded as 2 of 3.

For `O=c1ccsc2ccccc12`, the survivor count (dose: 200.0 mg/kg/injection, schedule: Q01DX001 (ip), vehicle: saline with Tween-80) is 0 of 3 and the survivor count (dose: 400.0 mg/kg/injection, schedule: Q01DX001 (ip), vehicle: saline with Tween-80) is 0 of 3.

Values taken from PubChem BioAssay AID248 (DTP/NCI, 2004).
